Assay results from the supplement of paper PMC10849652.
Some of the results follow.

By UniProt entry, the sequences of proteins in these tests, tags left out. Where a name states a change or a piece, a line headed by the entry shows the natural chain unless it says otherwise.
UniProt Q9UIB8: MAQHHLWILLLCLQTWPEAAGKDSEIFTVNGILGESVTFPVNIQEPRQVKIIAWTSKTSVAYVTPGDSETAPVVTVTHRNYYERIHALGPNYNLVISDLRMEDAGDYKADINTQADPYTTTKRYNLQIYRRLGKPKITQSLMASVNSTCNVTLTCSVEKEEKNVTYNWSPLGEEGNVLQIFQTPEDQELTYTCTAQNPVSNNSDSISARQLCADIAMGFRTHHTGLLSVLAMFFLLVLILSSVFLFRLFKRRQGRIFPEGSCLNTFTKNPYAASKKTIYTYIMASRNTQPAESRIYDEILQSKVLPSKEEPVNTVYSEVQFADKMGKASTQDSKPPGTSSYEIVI
UniProt O60583: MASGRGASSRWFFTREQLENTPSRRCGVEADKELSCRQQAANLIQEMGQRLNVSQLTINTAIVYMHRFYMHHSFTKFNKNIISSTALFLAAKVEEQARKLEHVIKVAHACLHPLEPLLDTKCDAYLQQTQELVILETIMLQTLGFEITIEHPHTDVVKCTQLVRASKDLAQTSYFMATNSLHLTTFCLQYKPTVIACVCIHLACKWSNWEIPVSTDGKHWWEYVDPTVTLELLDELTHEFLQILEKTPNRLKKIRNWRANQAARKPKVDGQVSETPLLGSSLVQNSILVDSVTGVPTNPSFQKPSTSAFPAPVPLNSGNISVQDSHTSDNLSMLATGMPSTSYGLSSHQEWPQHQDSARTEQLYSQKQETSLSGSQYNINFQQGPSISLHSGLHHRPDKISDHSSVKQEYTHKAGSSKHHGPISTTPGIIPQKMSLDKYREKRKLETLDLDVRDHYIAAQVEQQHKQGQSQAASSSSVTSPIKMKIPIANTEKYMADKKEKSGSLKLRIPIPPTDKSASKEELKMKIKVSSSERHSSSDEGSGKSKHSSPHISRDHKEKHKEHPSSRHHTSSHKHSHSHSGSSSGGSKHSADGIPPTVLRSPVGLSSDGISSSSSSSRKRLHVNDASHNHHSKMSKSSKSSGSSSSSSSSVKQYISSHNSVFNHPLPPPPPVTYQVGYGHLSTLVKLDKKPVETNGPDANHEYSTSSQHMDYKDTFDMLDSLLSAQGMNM

Columns and labels:
Test in all cases: log2 fold change, soluble protein after heating vs DMSO (PISA); higher = thermal stabilisation; K562 cells, 10 uM, 30 min; active = over 0.2 and 3.5 SD of the protein, either way, in both replicates (recomputed)
[1] = compound: CC1=C(SC2=C1C(=N[C@H](C3=NN=C(N32)C)CC(=O)N)C4=CC=C(C=C4)Cl)C
In short: (§1)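 K562 cells at 2×10^6 cells/mL were exposed to 10 μM compound for 30 min, then aliquots were heated for 3 min across 48°C-58°C, pooled, and extracted in PBS containing 0.5% NP-40 at 4°C. The supernatant after 21,000xg for 90 min was taken as soluble protein and measured by TMTpro 16plex LC-MS/MS with channel sums equalised. Thermal stability is reported relative to control samples, with values from duplicates. Fold changes are given on a log2 scale.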

[2] = compound: Cc1sc2c(c1C)C(c1ccc(Cl)cc1)=N[C@@H](CC(=O)OC(C)(C)C)c1nnc(C)n1-2
In short: as §1

[3] = compound: c1ccc([C@@H]2C[C@H]2NC2CCNCC2)cc1
In short: as §1

Target | log2 fold change [1] | log2 fold change [2] | log2 fold change [3]
CD84 (UniProt Q9UIB8) | inactive: 0.167 | inactive: -0.079 | inactive: 0.086
CCNT2 (UniProt O60583) | – | inactive: 0.061 | –
CAV1 (UniProt F8WDM7) | inactive: 0.184 | – | inactive: 0.099
